The record followed here is paper PMC5892887.

The exact form of at least one protein or probe is not confirmed. At least one verdict rests on a figure or table, not on a statement of the authors. Protein sequences can lack the tags named with them.

The target of this data set is T1, *III (core domain) (bacteriophage T4) (UniProt P03695).
T1 sequence (looked up): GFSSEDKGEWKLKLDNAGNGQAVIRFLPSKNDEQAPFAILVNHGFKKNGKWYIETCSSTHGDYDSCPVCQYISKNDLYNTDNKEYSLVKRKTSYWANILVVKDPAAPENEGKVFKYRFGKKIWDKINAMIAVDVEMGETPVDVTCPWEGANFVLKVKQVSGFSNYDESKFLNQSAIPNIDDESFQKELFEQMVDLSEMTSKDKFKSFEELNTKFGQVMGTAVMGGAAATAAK
The data set can be described thus: competition with a labelled probe. To be noted: inhibits EDC/NHS cross-linking of C-domain to core, ~50% at p(dT)7:core ratio 1; 5' phosphate; DNA stretching: 0.1 M Na+; recombinant protein; residues 22-253; single-stranded DNA.

In the case of TTTTTTT [p(dT)7], the binding result is reported as “binds”.
